The record followed here is publication PMC7862700.

Protein sequences, listed by entry. Tags and fused reporters are not part of them. Lines headed by an entry give the natural chain unless they say otherwise; changes in a name come on top.
UniProt O43186: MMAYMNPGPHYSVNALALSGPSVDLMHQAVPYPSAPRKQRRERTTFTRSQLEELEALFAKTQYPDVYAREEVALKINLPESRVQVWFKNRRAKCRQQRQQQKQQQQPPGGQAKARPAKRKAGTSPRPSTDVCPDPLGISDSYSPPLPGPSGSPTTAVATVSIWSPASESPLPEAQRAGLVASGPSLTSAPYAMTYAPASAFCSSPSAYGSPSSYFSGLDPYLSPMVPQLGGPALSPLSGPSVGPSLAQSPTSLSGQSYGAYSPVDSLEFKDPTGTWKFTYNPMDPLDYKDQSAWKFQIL

Only a part is listed here, and it is no random draw. At the low end of the ranking, values are background and their order means little.

Experiment in all cases: DAPPL (digital affinity profiling via proximity ligation, sequencing)
What all share (details): 10 mM Tris-HCl pH 7.5, 50 mM NaCl, 1 mM DTT, 4% glycerol, room temperature, 30 min; GST-TFs on glutathione beads, 16-mer random dsDNA library, 0.1% …; high values mean tight binding; double strand, one strand shown; scale: fold enrichment (6-mer frequency, TF over GST control)

For assay [1], the target named is T1, FEV (UniProt Q99581).
T1 sequence: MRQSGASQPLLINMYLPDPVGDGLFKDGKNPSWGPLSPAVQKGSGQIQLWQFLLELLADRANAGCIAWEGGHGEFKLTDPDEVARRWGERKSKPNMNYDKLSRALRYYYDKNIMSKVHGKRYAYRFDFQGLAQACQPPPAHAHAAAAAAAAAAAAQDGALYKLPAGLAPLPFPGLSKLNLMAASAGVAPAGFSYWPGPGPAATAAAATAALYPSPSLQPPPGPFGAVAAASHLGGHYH

For assay [2], the target named is CRX (UniProt O43186).
Assay [3] deals with T2, ELF5 (UniProt Q9UKW6-2).
T2 sequence: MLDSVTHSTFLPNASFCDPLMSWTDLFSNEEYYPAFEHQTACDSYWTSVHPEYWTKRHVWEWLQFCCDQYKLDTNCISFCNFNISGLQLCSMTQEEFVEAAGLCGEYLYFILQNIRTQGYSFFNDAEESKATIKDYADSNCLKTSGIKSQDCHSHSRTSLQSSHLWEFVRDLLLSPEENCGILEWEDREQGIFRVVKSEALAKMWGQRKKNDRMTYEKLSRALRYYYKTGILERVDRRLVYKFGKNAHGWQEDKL

As to GCGTTG, the binding signal in assay [1] stood at 0.96; in assay [2], 0.643; in assay [3], 0.843.
For CTAGTG, the binding signal in assay [1] was 0.879; in assay [2] it was 0.769; in assay [3], 0.812.
For CCCGAA, in that order: 1.37, 1.61 and 1.32.
For AAGGGA, in that order: 0.898, 0.97 and 0.948.
For GCTCTC, in that order: 1.47, 1.24 and 1.2.
For the sequence GTCCAA, the binding signal in assay [1] turned out to be 0.907; in assay [2], 0.715; in assay [3], 0.929.
On the same counts, the results for CTAGGG are 0.876, 0.89 and 0.835.
Turning to ATTGTG, the binding signal in assay [1] stood at 0.873; in assay [2], 0.921; in assay [3] it was 0.861.
Consider ACCAAG, for which the binding signal worked out at 0.912 in assay [1], 0.8 in assay [2] and 0.879 in assay [3].
For ACAGTT, in that order: 0.8, 0.697 and 0.829.
Consider GTCACC, for which the binding signal stood at 0.925 in assay [1], 0.605 in assay [2] and 0.905 in assay [3].
On the same counts, the results for AGCTAG are 0.96, 1 and 0.966.
On the same counts, the results for GAAAGG are 0.975, 0.816 and 0.945.
On the same counts, the results for GTACAG are 0.936, 0.711 and 0.903.
Consider CAGATG, for which the binding signal in assay [1] came to 0.97; in assay [2] it was 0.927; in assay [3] it was 0.975.
Regarding CTAAGG, the binding signal in assay [1] was 0.936; in assay [2], 1.12; in assay [3] it was 0.978.
For CCAAGT, the binding signal was determined as 0.897 in assay [1], 0.783 in assay [2] and 0.861 in assay [3].
For CGAAGA, in that order: 0.777, 0.863 and 0.713.
For GAATGC, in that order: 0.899, 0.817 and 1.07.
For TGCAGC, in that order: 1.08, 0.791 and 0.998.
For the sequence TGGGTA, the results for the binding signal in assay [1], in assay [2] and in assay [3] were 0.976, 0.945 and 0.954, respectively.
For CATGGC, in that order: 1.04, 0.842 and 0.9.
For GGGTAT, in that order: 0.932, 0.982 and 0.99.
On the same counts, the results for AGTTAC are 0.93, 0.735 and 0.99.
In the case of ACCGGT, the binding signal in assay [1] is 0.839; in assay [2] it was 0.657; in assay [3], 0.881.
Turning to AGAAAC, the binding signal in assay [1] turned out to be 0.896; in assay [2] it was 0.956; in assay [3] it was 0.953.
For AGACTC, the binding signal in assay [1] came to 0.952; in assay [2], 0.908; in assay [3], 0.888.
For GAGCTT, in that order: 0.929, 1.43 and 0.909.
On the same counts, the results for GACTTA are 0.916, 1.93 and 0.883.
On the same counts, the results for CGAAGT are 0.852, 0.897 and 0.9.
On to CCCAAG, for which the binding signal in assay [1] worked out at 0.96; in assay [2], 0.917; in assay [3], 0.968.
On the same counts, the results for TAGGTA are 1, 1.22 and 0.935.
For GTCTGG, in that order: 0.833, 0.785 and 0.792.
Regarding TGGCCG, the binding signal was 1.22 in assay [1], 0.83 in assay [2] and 0.957 in assay [3].
On the same counts, the results for ATCGTT are 0.959, 1.14 and 0.994.
As to GGCTGC, the binding signal in assay [1] was 0.929; in assay [2] it was 0.692; in assay [3] it was 0.874.
With GTATTG, the results for the binding signal in assay [1], in assay [2] and in assay [3] were 0.872, 0.846 and 0.928, respectively.
On the same counts, the results for TTGGCG are 0.974, 0.812 and 0.917.
For the sequence CGTCAA, the binding signal in assay [1] turned out to be 1.08; in assay [2] it was 0.873.
For ACCGGC, in that order: 1.14 and 0.874.
For GGGAAA, in that order: 0.915 and 0.743.
On the same counts, the results for GATCCA are 1.07 and 1.23.
GTGTTC: the binding signal in assay [1] stood at 1.08; in assay [2] it was 0.794.
For GCCACT, in that order: 1.31 and 0.876.
For TGTCAA, in that order: 0.947 and 0.837.
For GCCGGA, in that order: 1.59 and 0.534.
AGGATG: the binding signal in assay [1] came out at 0.922; in assay [2], 0.83.
For CTATGC, in that order: 1.36 and 1.15.
For TCGCGG, in that order: 1.02 and 0.92.
For GTTGAC, the binding signal in assay [1] came to 1.18; in assay [2], 0.794.
On the same counts, the results for TTCTCT are 1.22 and 1.49.
Regarding GGCCTT, the values for the binding signal in assay [1] and in assay [2] were 1.14 and 1.02, respectively.
TCCTTC: the binding signal in assay [1] came out at 2.2; in assay [2], 1.72.
In the case of ATAAGG, the figures for the binding signal in assay [1] and in assay [2] were 0.932 and 1.28, respectively.
For TCGAAC, in that order: 0.992 and 1.07.
On the same counts, the results for TGGGCT are 1.35 and 1.3.
For ACCCTG, in that order: 1.02 and 0.938.
Turning to AGAATA, the binding signal in assay [1] was 0.992; in assay [2], 1.42.
On the same counts, the results for AACGCG are 0.966 and 0.883.
For CACAAC, in that order: 1.31 and 0.87.
As to CCGCGC, the values for the binding signal in assay [1] and in assay [2] were 1.11 and 0.88, respectively.
On the same counts, the results for GATACA are 0.992 and 0.775.
On the same counts, the results for ACGCAC are 1.05 and 0.75.
For AGTAAA, in that order: 0.92 and 0.97.
On to ACGCGG, for which the binding signal came to 0.926 in assay [1] and 0.754 in assay [2].
As to TAGGTC, the values for the binding signal in assay [1] and in assay [2] were 0.929 and 0.908, respectively.
For GGTTAT, the binding signal in assay [1] is 0.977; in assay [2], 1.04.
For CACAAA, in that order: 1.09 and 0.979.
For CTTAAC, in that order: 1.27 and 2.4.
As to CATTGT, the binding signal amounted to 1.09 in assay [1] and 0.864 in assay [2].
On the same counts, the results for TGCCCT are 1.18 and 0.985.
On the same counts, the results for AGTCCT are 0.987 and 0.953.
For ATGGCG, in that order: 0.968 and 0.894.
As for CGACAA, the binding signal in assay [1] is 1.3; in assay [2] it was 1.03.
For TCTGGC, in that order: 1.16 and 1.31.
On the same counts, the results for GATCTA are 0.991 and 1.41.
On the same counts, the results for AGTGCA are 1.15 and 0.763.
Turning to CCTTAT, the binding signal came to 1.4 in assay [1] and 1.77 in assay [2].
On the same counts, the results for GGACTT are 1.4 and 1.08.
On the same counts, the results for TGACCA are 1.22 and 0.988.
On the same counts, the results for CGACGC are 0.997 and 0.781.
As for GTCCGC, the binding signal was 1.04 in assay [1] and 0.654 in assay [2].
In the case of TCATAA, the values for the binding signal in assay [1] and in assay [2] were 1 and 1.38, respectively.
On the same counts, the results for TTAGGT are 0.936 and 1.82.
Consider CACTTT, for which the figures for the binding signal in assay [1] and in assay [2] were 1.18 and 1.14, respectively.
With GTGTCC, the binding signal came to 1.1 in assay [1] and 0.639 in assay [2].
For GACTTC, in that order: 3.36 and 1.12.
For GTTTGA, in that order: 1.13 and 0.987.
On the same counts, the results for GTTGCG are 0.978 and 0.736.
For CGCTCG, the binding signal in assay [1] turned out to be 1.08; in assay [2], 0.84.
